In paper PMC10912431:
These are yes or no findings as the source states them, for the method shown. In cells and extracts the contact can be indirect. Binding can be weak; no strength is given. Sequences can lack the tags named with a protein.

Target: T1, glutathione S-transferase mu 3 (GSTM3), Flag-labelled (UniProt P21266)
T1 sequence: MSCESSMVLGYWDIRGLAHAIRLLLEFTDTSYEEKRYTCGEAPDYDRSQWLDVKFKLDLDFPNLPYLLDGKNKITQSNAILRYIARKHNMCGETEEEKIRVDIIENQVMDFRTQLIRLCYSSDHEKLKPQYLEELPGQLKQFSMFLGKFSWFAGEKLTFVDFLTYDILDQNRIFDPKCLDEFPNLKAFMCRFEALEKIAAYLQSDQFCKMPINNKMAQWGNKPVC
Experiment: co-IP; cells transfected with Flag-labelled plasmids, lysed in IP cell lysis buffer at 4 °C; anti-Flag antibody overnight at 4 °C, protein A/G agarose beads 4 h, three PBS washes, western blot

glutathione peroxidase 4 (GPX4) (human (endogenous in NPC cell lines))
binding: binds
